PubChem BioAssay AID1347426 (Functional Genomics Laboratory (NCATS/FGL), 2020)
Among all 31,000 sequences or so, about 1,400 (4.5%) were called active.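 Rule for the calls: active = median seed-adjusted z-score above 1 or below -1; inactive = the rest.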 The list shows a part of the results.

Assay: Novel Modifiers of Survival Motor Neuron (SMN) Protein: Gene Identification via Genome-wide siRNA Screen;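 note: luminescence tracks full-length SMN protein made from the SMN2 reporter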
Conditions: HEK293T SMN2-luciferase reporter, siRNA knockdown, 72 h; actives lie on both sides
Summary of the method: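 siRNA screen, 10418 genes ×3 siRNAs; 1 pmol/well, lipid reverse transfection into HEK293T SMN2-luc reporter line. 72 h, 37 °C, 5% CO2; ONE-Glo readout. Data: neg-ctrl normalized, log10, MAD; hit = MAD >1.0 or < -1.0.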

Sequence | median seed-adjusted z-score
GGACUCAGAUGAGUUUUAUTT against CYP11B2 | inactive: 0.459
CCAGCAGCAUGGAAGUUGUTT against HSD3B7 | inactive: -0.0819
GAGCGAGACAUAAAAUAUUTT against ZNF257 | inactive: 0.306
GGAUGAUAGAACAACAGAUTT against FMO2 | inactive: -0.265
AGCUCACCAGAGAAAUUUUTT against CHDH | inactive: 0.0241
CUACAACAUCGUUAGCAAATT against CNGB1 | inactive: -0.627
CUCGCUUCAUAGCAACUUUTT against PSMA8 | inactive: 0.407
GACCGACUGCAGAACAAUATT against PDE6B | inactive: -0.336
CGAAUCAUUUGGGAAUUGATT against IDH1 | inactive: 0.421
GGUUCACGCUAUAUAAUCATT against CNTN1 | inactive: -0.796
GUCUCAUGUUUAUACACCATT against HEXB | inactive: 0.0101
CACUCGCAGUUAAUAUCAUTT against AZIN1 | active: -1.14
CCAGGGACCAAGAGAAAGATT against RCE1 | active: -1.19
CUGUUUGGUUUAUUCGAUUTT against ZW10 | inactive: 0.199
GCAUACUGCCUAUUGGUCATT against DDHD1 | inactive: 0
CCUCUAUAAUACAAACGAUTT against CACNA1B | inactive: 0.0963
GGCUUUGAGUUGUCAAGCATT against PIK3C2A | inactive: 0.0177
GGAUAGUCUGACUAGUUUATT against BTF3 | inactive: 0.0468
GCAUCAACCACGAGUGUAATT against ZNF423 | inactive: 0.0134
CCAGUUCAAUAGUCAUGGATT against TAF7L | inactive: -0.14
GGAUGCACUUUGUCCGAAATT against SPATA5 | active: -1.04
CAUUCCCUGUUGUAAUCAATT against MDH1 | inactive: -0.154

Sequence | median seed-adjusted z-score
CUGCUGAUCUGGGCCUGAATT against HINT1 | inactive: 0.873
GACUCAAGUUAAACGAGAUTT against MFSD1 | inactive: -0.0833
GAUCUGCACCGUCCAGUUGTT against TNFRSF25 | inactive: -0.534
GGCCUAUCAGCUUCUAUCATT against GPR172A | inactive: 0.382
CGACCGCAAUAAGUAUGGATT against IHH | inactive: 0.0642
GGUUCGGGAUGACUCUUCATT against VAV1 | inactive: 0.215
CUACAAAUCCCUUACCAAUTT against TRDMT1 | inactive: 0
CGGUGCUCCCUGUCAUAAATT against CCR2 | inactive: -0.00107
CGUACGCAGAGAUGCCUAATT against ITPA | inactive: 0.616
CCAACGAGCGAGCAGCUUATT against BARX1 | active: 1.63
GGACCAUUUCUAUCAUCUUTT against GNAL | inactive: -0.178
GGAUGCACCUGAAAACAGATT against AHRR | inactive: -0.636
GAACUAUGUGGUGCGCUUATT against GPD1L | inactive: 0.11
CAGUGAUCCUGAACGAGGATT against DLG2 | inactive: 0.133
GGAGGACCAUUAUUAUGAATT against TKT | inactive: 0.0314
CCAGGGUAAAGUCAGUUAATT against SMAP2 | inactive: -0.0114
GCAGCUACCUCAUGACUAUTT against EIF4EBP2 | inactive: 0.517
GAAACCCGAUGGAUCUAGATT against AASDHPPT | inactive: 0.64
GGGUCAAGUCUGAACUGCUTT against KATNAL1 | inactive: -0.0327
UGACAUUACUGAUGACAUATT against LALBA | inactive: -0.148
GGAUUGUAAACAAGGUCAATT against TNFRSF9 | inactive: 0.859
CACCUUCAUUUUACUCGAATT against TAF5 | inactive: -0.192

Sequence | median seed-adjusted z-score
GGAAAAAGGGCAUCGAGAATT against MDH2 | inactive: 0.185
CAUAUAUGAUUGCAUCAAATT against ACTL6A | active: 1.11
GACCAUACCCAGUACCGAUTT against MYH15 | inactive: -0.939
CGCAGUGCUUAAUCGAAAATT against CARD11 | inactive: 0.22
GGCUGGAUCUAUGACAACATT against SLC22A6 | inactive: 0.135
GCAGAUAGGCUCUUACUUUTT against ITGA11 | inactive: 0.496
UGCUCAUCACCAACUCUAATT against GALK1 | inactive: 0.315
GUGGGUAACUGGAACAAAATT against MFGE8 | inactive: 0.0367
CCACAGCAUGAACCGCUUATT against CPA5 | inactive: 0.141
AGAUGAUCGACGAAGCUGATT against CETN1 | inactive: 0.236
CUCCUAUAAGAAAUCAAUATT against FLVCR1 | inactive: 0.197
GGACGAUAGGGAUAGGGAUTT against EIF3A | inactive: -0.689
CAGUCCCUAUUUCAAAAUATT against PDE6G | inactive: 0.0109
GAAUCUAAGCAUAUACUCUTT against MYO3B | inactive: 0.51
CCGUAACCGCCGCAAGAUATT against RAVER1 | inactive: -0.0873
GAAGGAAUAUUGUAAUACATT against LACE1 | inactive: 0.166
GACAAAAAGUCCAACCCUATT against CYB5R3 | inactive: -0.901
GGAUGUACUGCAGUACAGATT against EPHA3 | inactive: 0
UCUUCGUGGUGAUCACUGUTT against SLC46A1 | inactive: -0.00763
GCAAGUACCUGAGAACGGATT against APOB | inactive: -0.0862
CACCCAAGCUGAUCAGAGATT against FAR2 | inactive: 0.0328
CGAUUUGACGAUUACAACATT against FSTL4 | inactive: 0.429

Sequence | median seed-adjusted z-score
GAUUCCCUGCAUCAACUAATT against SQLE | active: -1.14
GUUCUUCACUUUUGAGGAUTT against DMRT1 | inactive: 0
ACAAAACUCUCCAGAUUAATT against STYXL1 | inactive: -0.311
GGCAUACUUGCAACUAAUATT against MX2 | inactive: -0.0346
CACUCACCAUGAAGCGAAATT against CDKN2B | inactive: 0.0154
GCAGACCACCUGAAUAUGATT against TRO | active: 2.04
GUUAAAGUCCUUAACAAUATT against DNAJB6 | inactive: -0.251
CGGAACAUCUGUUUCCCAATT against USP49 | inactive: 0.549
CCCACUACCCAGACAUAUATT against PAX7 | inactive: -0.803
GGUUCCCUGUUUACCCUCATT against FLRT1 | inactive: -0.00451
CGAAUGCUCAAGCAACUCATT against CDKL1 | inactive: -0.28
GGCUGGAUAUGUAGGCGAATT against CLPX | inactive: -0.0436
GGUUGAUACCCACUCAAAATT against VIM | inactive: 0.431
GAAAGACUACGAAUGCAAATT against ZNF331 | inactive: 0.415
GGGAUUAUCCGGUUUGUCATT against FPR2 | inactive: -0.166
UCUCUGAAGUUAUCUCGGATT against SDS | inactive: 0.128
GAUCACCUCUCUUACUUCATT against NEDD4 | inactive: 0.454
GCCUUCGAGUUCCUUGUUUTT against COX6B2 | inactive: -0.544
ACCUUGGUGUUGGACCUCATT against RNF26 | inactive: 0.359
CCAGAUAAAUCUAUAGCAATT against RCOR1 | active: -1.13
CCAGUUCUCCGAAAUCCAATT against METTL7B | inactive: 0.223
GCAGUUCCGGGAAAGAUCATT against SELE | inactive: 0.469

Sequence | median seed-adjusted z-score
GAGUUACAGCUGAUCAAAATT against VPS26A | active: -1.55
CGUCUGGUGUAGUAAUGAUTT against ALAS2 | inactive: -0.142
GAACUCCACCUAGACCACATT against BGN | inactive: 0.376
CCGAGAAAUUACUCCGUUATT against MAGT1 | inactive: -0.0855
CGAGAGUUACUUACAAGAATT against RAN | active: -3.09
GAUGAUUCCUGGAAAAGUATT against GLA | inactive: -0.494
GAUGAUUUUUGGAGACCUATT against TRPV5 | inactive: 0.0879
AGACGAUCCCUUCUACUAUTT against FXYD4 | inactive: -0.0447
GCAGGGCAUUUAUGGGACATT against KRT79 | inactive: 0.338
AAGGUACACUGGUCCCAAATT against CDKN1C | inactive: -0.0497
CAACCUGGGUCAGAUCACATT against SLC1A6 | inactive: 0.0455
GCUCCUUCAUCGAGAAGUATT against RAP2B | inactive: -0.22
CAGCAAAGUUAAUUCAACATT against SRPRB | inactive: 0.000693
GGCUCAAAUUGAACGUGGATT against SMARCA1 | inactive: 0.6
GGACAGCUGCACGCUCUUATT against TESK1 | inactive: 0.384
UGCUCGUGCUCGUUCCAAATT against ING4 | inactive: -0.152
CACAGUUGUUUAUGACUCATT against AKAP10 | inactive: 0.0689
UGAAGAUUCUGGUGCAGCATT against ASB2 | inactive: -0.825
GAGACGGAAUGUUAUCAGATT against IFIT3 | inactive: -0.437
GCGGUCCAAUGAUACUAAUTT against KCNH1 | inactive: -0.0859
